Binding data for one substance are collected here from paper PMC10940622.

Protein sequences, listed by entry. Tags and fused reporters are not part of them. Residues count along the entry.
UniProt Q9NXA8, residues 37-310: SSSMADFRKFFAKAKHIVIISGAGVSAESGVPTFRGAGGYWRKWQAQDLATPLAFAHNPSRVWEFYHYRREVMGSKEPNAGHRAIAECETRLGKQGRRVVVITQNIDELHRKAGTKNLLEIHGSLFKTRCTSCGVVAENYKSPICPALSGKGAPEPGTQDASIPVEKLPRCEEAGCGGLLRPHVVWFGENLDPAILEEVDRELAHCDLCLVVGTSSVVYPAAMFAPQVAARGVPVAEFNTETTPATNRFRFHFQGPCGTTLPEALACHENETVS
UniProt P49773: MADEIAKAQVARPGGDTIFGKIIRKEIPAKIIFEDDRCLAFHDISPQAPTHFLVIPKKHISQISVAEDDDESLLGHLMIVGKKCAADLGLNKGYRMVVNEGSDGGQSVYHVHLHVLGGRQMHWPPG

No constants are given. Whether binding was seen depends on the method and setting. Binding seen in cells or lysates may run through a third protein. These calls come from enrichment with a bait or labelling near it, and not all partners need be listed.

In the test the target is Flag-tagged SIRT5 (sirtuin 5), overexpressed in Nalm-6-6-MPR cells (UniProt Q9NXA8). The experiment in a line: affinity purification with mass spectrometry; Flag-SIRT5 overexpressed in Nalm-6-6-MPR cells, lysed in 1% NP-40 buffer, held on Flag Fab-Trap agarose overnight at 4 °C; gel stained with coomassie brilliant blue, cut, tandem mass spectrometry.

With “histidine triad nucleotide-binding protein 1 (HINT1), co-precipitated from Nalm-6-6-MPR cells (from UniProt P49773 1-126)”, the binding result is “binds”.
